Data published in article PMC7300003, “Alternative catalytic residues in the active site of Esco acetyltransferases” (Scientific Reports, 2020).
No constants are given. Whether binding was seen depends on the method and setting. Some binding calls cover weakened binding; strength is not graded here. Sequences can lack the tags named with a protein.

The chains behind the UniProt entries cited, without tags or fusion partners.
UniProt Q9UQE7: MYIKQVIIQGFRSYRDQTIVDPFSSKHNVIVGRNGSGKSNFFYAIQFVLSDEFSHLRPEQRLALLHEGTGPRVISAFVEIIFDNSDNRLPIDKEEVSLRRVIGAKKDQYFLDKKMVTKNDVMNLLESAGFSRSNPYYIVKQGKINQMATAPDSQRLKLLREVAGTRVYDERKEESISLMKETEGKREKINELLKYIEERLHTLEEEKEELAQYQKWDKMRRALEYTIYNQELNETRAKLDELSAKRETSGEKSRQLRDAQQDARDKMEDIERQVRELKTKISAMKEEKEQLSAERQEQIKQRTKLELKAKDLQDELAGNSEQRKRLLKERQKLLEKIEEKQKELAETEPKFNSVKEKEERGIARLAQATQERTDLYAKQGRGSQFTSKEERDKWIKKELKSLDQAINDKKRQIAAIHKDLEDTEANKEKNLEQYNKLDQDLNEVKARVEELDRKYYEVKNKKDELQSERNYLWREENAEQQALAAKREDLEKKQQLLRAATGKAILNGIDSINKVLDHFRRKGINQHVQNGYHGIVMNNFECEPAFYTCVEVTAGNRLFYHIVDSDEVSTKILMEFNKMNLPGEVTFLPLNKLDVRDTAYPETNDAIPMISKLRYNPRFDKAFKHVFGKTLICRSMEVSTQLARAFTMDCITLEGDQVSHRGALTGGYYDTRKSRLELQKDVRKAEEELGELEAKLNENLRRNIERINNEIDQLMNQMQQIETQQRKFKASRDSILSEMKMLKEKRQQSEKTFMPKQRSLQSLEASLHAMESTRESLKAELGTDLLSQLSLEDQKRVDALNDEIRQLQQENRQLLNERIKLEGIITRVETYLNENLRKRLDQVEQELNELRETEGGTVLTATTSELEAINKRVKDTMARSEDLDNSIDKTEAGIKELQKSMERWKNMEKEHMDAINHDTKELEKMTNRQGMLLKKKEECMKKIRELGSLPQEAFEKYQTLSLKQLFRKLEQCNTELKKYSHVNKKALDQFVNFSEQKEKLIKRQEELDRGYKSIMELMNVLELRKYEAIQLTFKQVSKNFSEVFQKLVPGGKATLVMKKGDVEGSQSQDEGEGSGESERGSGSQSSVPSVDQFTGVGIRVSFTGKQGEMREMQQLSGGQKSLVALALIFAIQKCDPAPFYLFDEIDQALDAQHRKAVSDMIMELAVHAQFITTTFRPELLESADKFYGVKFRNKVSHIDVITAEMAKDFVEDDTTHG

Molecular target: T1, His-SA1 (tetramer construct) (human) (UniProt Q8WVM7)
T1 sequence: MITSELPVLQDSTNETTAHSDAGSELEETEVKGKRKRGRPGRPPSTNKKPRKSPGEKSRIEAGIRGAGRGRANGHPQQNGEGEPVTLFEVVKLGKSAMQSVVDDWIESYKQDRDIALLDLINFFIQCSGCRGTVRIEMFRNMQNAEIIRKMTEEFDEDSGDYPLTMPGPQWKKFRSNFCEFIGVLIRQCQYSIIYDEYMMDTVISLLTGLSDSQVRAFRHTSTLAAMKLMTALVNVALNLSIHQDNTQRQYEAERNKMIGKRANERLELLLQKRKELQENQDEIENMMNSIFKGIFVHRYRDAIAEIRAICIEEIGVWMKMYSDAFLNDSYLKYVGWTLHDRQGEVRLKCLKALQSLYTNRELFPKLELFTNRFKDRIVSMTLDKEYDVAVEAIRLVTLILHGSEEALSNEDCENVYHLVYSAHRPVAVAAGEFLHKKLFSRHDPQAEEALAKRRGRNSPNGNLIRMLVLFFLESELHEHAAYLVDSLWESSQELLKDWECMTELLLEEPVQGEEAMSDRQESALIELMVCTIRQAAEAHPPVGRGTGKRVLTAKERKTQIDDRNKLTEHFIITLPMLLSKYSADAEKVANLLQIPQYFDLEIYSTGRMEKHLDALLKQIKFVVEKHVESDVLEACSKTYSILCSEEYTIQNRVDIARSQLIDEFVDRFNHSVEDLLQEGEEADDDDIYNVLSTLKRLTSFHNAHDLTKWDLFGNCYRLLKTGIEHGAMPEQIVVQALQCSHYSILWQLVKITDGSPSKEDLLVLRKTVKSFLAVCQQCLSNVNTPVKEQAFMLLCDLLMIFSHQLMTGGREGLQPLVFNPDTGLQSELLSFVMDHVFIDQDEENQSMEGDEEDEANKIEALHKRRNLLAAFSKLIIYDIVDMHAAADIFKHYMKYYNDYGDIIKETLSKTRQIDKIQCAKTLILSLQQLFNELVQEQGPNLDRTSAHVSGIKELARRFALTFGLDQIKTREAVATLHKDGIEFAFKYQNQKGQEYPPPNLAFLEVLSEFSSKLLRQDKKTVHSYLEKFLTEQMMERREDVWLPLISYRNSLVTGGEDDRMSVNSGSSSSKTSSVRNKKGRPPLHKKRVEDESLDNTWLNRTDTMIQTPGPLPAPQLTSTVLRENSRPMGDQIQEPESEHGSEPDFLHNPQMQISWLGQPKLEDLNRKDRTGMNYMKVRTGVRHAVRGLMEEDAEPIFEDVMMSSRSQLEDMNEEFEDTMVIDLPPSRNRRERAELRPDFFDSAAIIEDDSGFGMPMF
Test: co-purification of co-expressed proteins (Ni-NTA, then anti-FLAG M2 agarose); SMC1, SMC3-FLAG, SCC1 and HIS-SA1 co-expressed in Hi5; Ni-NTA beads with a 1 M NaCl wash, imidazole elution; eluate on anti-FLAG M2 agarose, eluted with FLAG peptide in 25 mM HEPES pH 7.5, 150 mM NaCl, 10% glycerol, 1 mM DTT

binding: binds
Substance: SMC3-FLAG (tetramer construct) (from UniProt Q9UQE7 1-1217)
